This is an account of results in publication PMC3983041, “Interplay of the Serine/Threonine-Kinase StkP and the Paralogs DivIVA and GpsB in Pneumococcal Cell Elongation and Division” (PLoS Genetics, 2014).

By UniProt entry, the sequences of proteins in these tests, tags left out.
UniProt A0A0H2ZNE0: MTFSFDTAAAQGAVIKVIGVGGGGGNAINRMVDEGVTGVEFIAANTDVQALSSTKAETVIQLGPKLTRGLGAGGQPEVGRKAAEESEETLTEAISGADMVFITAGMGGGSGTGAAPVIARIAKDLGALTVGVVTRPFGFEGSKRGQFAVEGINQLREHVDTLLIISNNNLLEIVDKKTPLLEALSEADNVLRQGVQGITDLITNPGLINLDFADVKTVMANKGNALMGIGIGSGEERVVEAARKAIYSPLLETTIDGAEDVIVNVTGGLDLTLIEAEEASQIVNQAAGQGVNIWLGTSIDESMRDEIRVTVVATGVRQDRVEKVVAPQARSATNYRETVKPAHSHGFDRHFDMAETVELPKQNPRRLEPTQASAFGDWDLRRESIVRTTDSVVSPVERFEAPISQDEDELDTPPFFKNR

The target in assay [1] is T1, EzrA (bacterial two-hybrid fusion) (Streptococcus pneumoniae) (UniProt Q8DQE5).
T1 sequence: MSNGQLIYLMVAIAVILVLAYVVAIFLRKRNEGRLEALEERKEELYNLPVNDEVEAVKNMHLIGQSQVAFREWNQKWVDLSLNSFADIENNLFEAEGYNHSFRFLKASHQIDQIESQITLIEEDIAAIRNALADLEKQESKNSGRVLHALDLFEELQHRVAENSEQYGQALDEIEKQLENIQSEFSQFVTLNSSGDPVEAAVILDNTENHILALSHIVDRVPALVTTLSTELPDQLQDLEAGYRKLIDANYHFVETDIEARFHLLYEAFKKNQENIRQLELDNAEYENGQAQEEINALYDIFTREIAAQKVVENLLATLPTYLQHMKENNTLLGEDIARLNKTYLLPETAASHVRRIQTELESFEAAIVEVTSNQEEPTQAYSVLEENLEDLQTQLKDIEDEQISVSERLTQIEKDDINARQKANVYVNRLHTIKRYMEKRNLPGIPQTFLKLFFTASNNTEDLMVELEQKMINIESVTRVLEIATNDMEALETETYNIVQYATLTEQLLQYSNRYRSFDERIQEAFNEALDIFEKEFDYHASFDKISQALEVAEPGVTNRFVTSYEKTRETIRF
Briefly: two-hybrid; bacterial two-hybrid (adenylate cyclase T18/T25 fragments fused to the C-terminus), co-transformation in E. coli BTH101, 40 h at 30°C on LB-agar with X-gal and 0.5 mM IPTG; blue coloration indicates positive interactions.

In assay [2] the target is T2, GpsB (bacterial two-hybrid fusion) (Streptococcus pneumoniae) (UniProt C1CIN3).
T2 sequence: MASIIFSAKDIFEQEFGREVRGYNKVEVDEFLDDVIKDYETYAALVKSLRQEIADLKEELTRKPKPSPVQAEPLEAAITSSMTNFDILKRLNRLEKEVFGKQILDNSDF
The assay is described as above.

Results are given in words; binding and its absence hold for the method and conditions named. Some entries that bind do so weakly or less than the wild type. Tags and fused reporters may be left off the sequences shown.

With “FtsZ (bacterial two-hybrid fusion) (from UniProt A0A0H2ZNE0 1-419)”, the binding entry in assay [1] is listed as “binds”.

B1: GpsB (bacterial two-hybrid fusion) (protein, UniProt C1CIN3 1-109)
chain: T2 sequence
As for B1, in assay [1], the binding entry was “binds”.

B2: DivIVA (bacterial two-hybrid fusion) (protein, UniProt Q8CWP9 1-262)
chain: MPITSLEIKDKTFGTRFRGFDPEEVDEFLDIVVRDYEDLVRANHDKNLRIKSLEERLSYFDEIKDSLSQSVLIAQDTAERVKQAAHERSNNIIHQAEQDAQRLLEEAKYKANEILRQATDNAKKVAVETEELKNKSRVFHQRLKSTIESQLAIVESSDWEDILRPTATYLQTSDEAFKEVVSEVLGEPIPAPIEEEPIDMTRQFSQAEMEELQARIEVADKELSEFEAQIKQEVETPTPVVSPQVEEEPLLIQLAQCMKNQK
For B2, the binding entry in assay [2] and in assay [1] was “binds” throughout.
